Results: US6166030A, “Compounds” (priority 1997, dated 2000)
Counter-ions that a name gives are not always drawn. Some entries share one result that the patent states for a list of compounds.

Molecular target: T1, neuronal nitric oxide synthase (Rattus norvegicus, UniProt P29476)
T1 construct: The enzyme is isolated from rat hippocampus or cerebellum; from tissue; host or cells: cerebellum or hippocampus of male Sprague-Dawley rat (20,000 g supernatant)
Assay: Screen for neuronal nitric oxide synthase inhibiting activity
Type: biochemical
Conditions: for selectivity for inhibition of the neuronal isoform of the enzyme: in words, neuronal screen and endothelial (HUVEC) screen; for IC50: read-out: IC50 values for inhibition of neuronal nitric oxide synthase, concentration which gives 50% enzyme inhibition in the assay

| SMILES | selectivity for inhibition of the neuronal isoform of the enzyme | IC50 [µM] |
| --- | --- | --- |
| CCCCN1CCc2ccc(NC(=N)c3cccs3)cc2C1 [Example 6, N-(2-Butyl-1,2,3,4-tetrahydroisoguinolin-7-yl)-2-thiophenecarboximidamide] | good selectivity | < 10 |
| CCN1CCc2ccc(NC(=N)c3cccs3)cc2C1 [Example 3, N-(2-Ethyl-1,2,3,4-tetrahydroisoguinolin-7-yl)-2-thiophenecarboximidamide hydrochloride] | good selectivity | < 10 |
| CN1CCc2ccc(NC(=N)c3ccsc3)cc2C1 [Example 5, N-(2-Methyl-1,2,3,4-tetrahydroisoguinolin-7-yl)-3-thiophenecarboximidamide dihydrochloride] | good selectivity | < 10 |
| CN1CCc2ccc(NC(=N)c3cccs3)cc2C1 [Example 1, N-(2-Methyl-1,2,3,4-tetrahydroisoguinolin-7-yl)-2-thiophenecarboximidamide dihydrochloride] | good selectivity | < 10 |
| CCCN1CCc2ccc(NC(=N)c3cccs3)cc2C1.Cl.Cl [Example 4, N-(2-Propyl-1,2,3,4-tetrahydroisoquinolin-7-yl)-2-thiophenecarboximidamide dihydrochloride] | good selectivity | < 10 |
| CC(C)N1CCc2ccc(NC(=N)c3cccs3)cc2C1 [Example 2, N-(2-Isopropyl-1,2,3,4-tetrahydroisoquinolin-7-yl)-2-thiophenecarboximidamide] | good selectivity | < 10 |
